The results in this text go back to article PMC11605229.

These are yes or no findings as the source states them, for the method shown. Binding seen in cells or lysates may run through a third protein. A yes stands for co-enrichment or nearness to the bait. Other partners may have been found.

For the assay, the target named is BioID-BAG3 (UniProt O95817). Briefly: proximity labelling; BioID in human AC16 cardiomyocyte cells: transfected with plasmid expressing BioID-BAG3 for 48 h, biotin for 16 h; LC-MS/MS; BAG3_Biotin vs. BioID vector only, adjusted p < 0.05; effect sizes corrected for biotin alone and for BAG3 over-expression; three replicates.

B1: RBM34 (protein, UniProt P42696 1-430)
chain: MALEGMSKRKRKRSVQEGENPDDGVRGSPPEDYRLGQVASSLFRGEHHSRGGTGRLASLFSSLEPQIQPVYVPVPKQTIKKTKRNEEEESTSQIERPLSQEPAKKVKAKKKHTNAEKKLADRESALASADLEEEIHQKQGQKRKNSQPGVKVADRKILDDTEDTVVSQRKKIQINQEEERLKNERTVFVGNLPVTCNKKKLKSFFKEYGQIESVRFRSLIPAEGTLSKKLAAIKRKIHPDQKNINAYVVFKEESAATQALKRNGAQIADGFRIRVDLASETSSRDKRSVFVGNLPYKVEESAIEKHFLDCGSIMAVRIVRDKMTGIGKGFGYVLFENTDSVHLALKLNNSELMGRKLRVMRSVNKEKFKQQNSNPRLKNVSKPKQGLNFTSKTAEGHPKSLFIGEKAVLLKTKKKGQKKSGRPKKQRKQK
Consider B1, for which the binding entry was “binds”.

B2: KHSRP (protein, UniProt Q92945 1-711)
chain: MSDYSTGGPPPGPPPPAGGGGGAGGAGGGPPPGPPGAGDRGGGGPGGGGPGGGSAGGPSQPPGGGGPGIRKDAFADAVQRARQIAAKIGGDAATTVNNSTPDFGFGGQKRQLEDGDQPESKKLASQGDSISSQLGPIHPPPRTSMTEEYRVPDGMVGLIIGRGGEQINKIQQDSGCKVQISPDSGGLPERSVSLTGAPESVQKAKMMLDDIVSRGRGGPPGQFHDNANGGQNGTVQEIMIPAGKAGLVIGKGGETIKQLQERAGVKMILIQDGSQNTNVDKPLRIIGDPYKVQQACEMVMDILRERDQGGFGDRNEYGSRIGGGIDVPVPRHSVGVVIGRSGEMIKKIQNDAGVRIQFKQDDGTGPEKIAHIMGPPDRCEHAARIINDLLQSLRSGPPGPPGGPGMPPGGRGRGRGQGNWGPPGGEMTFSIPTHKCGLVIGRGGENVKAINQQTGAFVEISRQLPPNGDPNFKLFIIRGSPQQIDHAKQLIEEKIEGPLCPVGPGPGGPGPAGPMGPFNPGPFNQGPPGAPPHAGGPPPHQYPPQGWGNTYPQWQPPAPHDPSKAAAAAADPNAAWAAYYSHYYQQPPGPVPGPAPAPAAPPAQGEPPQPPPTGQSDYTKAWEEYYKKIGQQPQQPGAPPQQDYTKAWEEYYKKQAQVATGGGPGAPPGSQPDYSAAWAEYYRQQAAYYGQTPGPGGPQPPPTQQGQQQAQ
For the molecule B2, the binding result was “binds”.

B3: PARN (protein, UniProt O95453 1-639)
chain: MEIIRSNFKSNLHKVYQAIEEADFFAIDGEFSGISDGPSVSALTNGFDTPEERYQKLKKHSMDFLLFQFGLCTFKYDYTDSKYITKSFNFYVFPKPFNRSSPDVKFVCQSSSIDFLASQGFDFNKVFRNGIPYLNQEEERQLREQYDEKRSQANGAGALSYVSPNTSKCPVTIPEDQKKFIDQVVEKIEDLLQSEENKNLDLEPCTGFQRKLIYQTLSWKYPKGIHVETLETEKKERYIVISKVDEEERKRREQQKHAKEQEELNDAVGFSRVIHAIANSGKLVIGHNMLLDVMHTVHQFYCPLPADLSEFKEMTTCVFPRLLDTKLMASTQPFKDIINNTSLAELEKRLKETPFNPPKVESAEGFPSYDTASEQLHEAGYDAYITGLCFISMANYLGSFLSPPKIHVSARSKLIEPFFNKLFLMRVMDIPYLNLEGPDLQPKRDHVLHVTFPKEWKTSDLYQLFSAFGNIQISWIDDTSAFVSLSQPEQVKIAVNTSKYAESYRIQTYAEYMGRKQEEKQIKRKWTEDSWKEADSKRLNPQCIPYTLQNHYYRNNSFTAPSTVGKRNLSPSQEEAGLEDGVSGEISDTELEQTDSCAEPLSEGRKKAKKLKRMKKELSPAGSISKNSPATLFEVPDTW
With B3, the binding result was “binds”.

B4: ECSIT (protein, UniProt Q9BQ95 49-431)
chain: SSEQSLVPSPPEPRQRPTKALVPFEDLFGQAPGGERDKASFLQTVQKFAEHSVRKRGHIDFIYLALRKMREYGVERDLAVYNQLLNIFPKEVFRPRNIIQRIFVHYPRQQECGIAVLEQMENHGVMPNKETEFLLIQIFGRKSYPMLKLVRLKLWFPRFMNVNPFPVPRDLPQDPVELAMFGLRHMEPDLSARVTIYQVPLPKDSTGAADPPQPHIVGIQSPDQQAALARHNPARPVFVEGPFSLWLRNKCVYYHILRADLLPPEEREVEETPEEWNLYYPMQLDLEYVRSGWDNYEFDINEVEEGPVFAMCMAGAHDQATMAKWIQGLQETNPTLAQIPVVFRLAGSTRELQTSSAGLEEPPLPEDHQEEDDNLQRQQQGQS
B4: the binding entry was “binds”.

B5: RND3 (protein, UniProt P61587 1-244)
chain: MKERRASQKLSSKSIMDPNQNVKCKIVVVGDSQCGKTALLHVFAKDCFPENYVPTVFENYTASFEIDTQRIELSLWDTSGSPYYDNVRPLSYPDSDAVLICFDISRPETLDSVLKKWKGEIQEFCPNTKMLLVGCKSDLRTDVSTLVELSNHRQTPVSYDQGANMAKQIGAATYIECSALQSENSVRDIFHVATLACVNKTNKNVKRNKSQRATKRISHMPSRPELSAVATDLRKDKAKSCTVM
B5: the binding entry is “binds”.

B6: ZC3H14 (protein, UniProt Q6PJT7 1-736)
chain: MEIGTEISRKIRSAIKGKLQELGAYVDEELPDYIMVMVANKKSQDQMTEDLSLFLGNNTIRFTVWLHGVLDKLRSVTTEPSSLKSSDTNIFDSNVPSNKSNFSRGDERRHEAAVPPLAIPSARPEKRDSRVSTSSQESKTTNVRQTYDDGAATRLMSTVKPLREPAPSEDVIDIKPEPDDLIDEDLNFVQENPLSQKKPTVTLTYGSSRPSIEIYRPPASRNADSGVHLNRLQFQQQQNSIHAAKQLDMQSSWVYETGRLCEPEVLNSLEETYSPFFRNNSEKMSMEDENFRKRKLPVVSSVVKVKKFNHDGEEEEEDDDYGSRTGSISSSVSVPAKPERRPSLPPSKQANKNLILKAISEAQESVTKTTNYSTVPQKQTLPVAPRTRTSQEELLAEVVQGQSRTPRISPPIKEEETKGDSVEKNQGTQQRQLLSRLQIDPVMAETLQMSQDYYDMESMVHADTRSFILKKPKLSEEVVVAPNQESGMKTADSLRVLSGHLMQTRDLVQPDKPASPKFIVTLDGVPSPPGYMSDQEEDMCFEGMKPVNQTAASNKGLRGLLHPQQLHLLSRQLEDPNGSFSNAEMSELSVAQKPEKLLERCKYWPACKNGDECAYHHPISPCKAFPNCKFAEKCLFVHPNCKYDAKCTKPDCPFTHVSRRIPVLSPKPAVAPPAPPSSSQLCRYFPACKKMECPFYHPKHCRFNTQCTRPDCTFYHPTINVPPRHALKWIRPQTSE
Regarding B6, the binding entry was “binds”.

B7: NFKB2 (protein, UniProt Q00653 1-900)
chain: MESCYNPGLDGIIEYDDFKLNSSIVEPKEPAPETADGPYLVIVEQPKQRGFRFRYGCEGPSHGGLPGASSEKGRKTYPTVKICNYEGPAKIEVDLVTHSDPPRAHAHSLVGKQCSELGICAVSVGPKDMTAQFNNLGVLHVTKKNMMGTMIQKLQRQRLRSRPQGLTEAEQRELEQEAKELKKVMDLSIVRLRFSAFLRASDGSFSLPLKPVISQPIHDSKSPGASNLKISRMDKTAGSVRGGDEVYLLCDKVQKDDIEVRFYEDDENGWQAFGDFSPTDVHKQYAIVFRTPPYHKMKIERPVTVFLQLKRKRGGDVSDSKQFTYYPLVEDKEEVQRKRRKALPTFSQPFGGGSHMGGGSGGAAGGYGGAGGGGSLGFFPSSLAYSPYQSGAGPMGCYPGGGGGAQMAATVPSRDSGEEAAEPSAPSRTPQCEPQAPEMLQRAREYNARLFGLAQRSARALLDYGVTADARALLAGQRHLLTAQDENGDTPLHLAIIHGQTSVIEQIVYVIHHAQDLGVVNLTNHLHQTPLHLAVITGQTSVVSFLLRVGADPALLDRHGDSAMHLALRAGAGAPELLRALLQSGAPAVPQLLHMPDFEGLYPVHLAVRARSPECLDLLVDSGAEVEATERQGGRTALHLATEMEELGLVTHLVTKLRANVNARTFAGNTPLHLAAGLGYPTLTRLLLKAGADIHAENEEPLCPLPSPPTSDSDSDSEGPEKDTRSSFRGHTPLDLTCSTKVKTLLLNAAQNTMEPPLTPPSPAGPGLSLGDTALQNLEQLLDGPEAQGSWAELAERLGLRSLVDTYRQTTSPSGSLLRSYELAGGDLAGLLEALSDMGLEEGVRLLRGPETRDKLPSTAEVKEDSAYGSQSVEQEAEKLGPPPEPPGGLCHGHPQPQVH
In the case of B7, the binding entry is recorded as “binds”.

B8: TSC1 (protein, UniProt Q92574 1-1164)
chain: MAQQANVGELLAMLDSPMLGVRDDVTAVFKENLNSDRGPMLVNTLVDYYLETSSQPALHILTTLQEPHDKHLLDRINEYVGKAATRLSILSLLGHVIRLQPSWKHKLSQAPLLPSLLKCLKMDTDVVVLTTGVLVLITMLPMIPQSGKQHLLDFFDIFGRLSSWCLKKPGHVAEVYLVHLHASVYALFHRLYGMYPCNFVSFLRSHYSMKENLETFEEVVKPMMEHVRIHPELVTGSKDHELDPRRWKRLETHDVVIECAKISLDPTEASYEDGYSVSHQISARFPHRSADVTTSPYADTQNSYGCATSTPYSTSRLMLLNMPGQLPQTLSSPSTRLITEPPQATLWSPSMVCGMTTPPTSPGNVPPDLSHPYSKVFGTTAGGKGTPLGTPATSPPPAPLCHSDDYVHISLPQATVTPPRKEERMDSARPCLHRQHHLLNDRGSEEPPGSKGSVTLSDLPGFLGDLASEEDSIEKDKEEAAISRELSEITTAEAEPVVPRGGFDSPFYRDSLPGSQRKTHSAASSSQGASVNPEPLHSSLDKLGPDTPKQAFTPIDLPCGSADESPAGDRECQTSLETSIFTPSPCKIPPPTRVGFGSGQPPPYDHLFEVALPKTAHHFVIRKTEELLKKAKGNTEEDGVPSTSPMEVLDRLIQQGADAHSKELNKLPLPSKSVDWTHFGGSPPSDEIRTLRDQLLLLHNQLLYERFKRQQHALRNRRLLRKVIKAAALEEHNAAMKDQLKLQEKDIQMWKVSLQKEQARYNQLQEQRDTMVTKLHSQIRQLQHDREEFYNQSQELQTKLEDCRNMIAELRIELKKANNKVCHTELLLSQVSQKLSNSESVQQQMEFLNRQLLVLGEVNELYLEQLQNKHSDTTKEVEMMKAAYRKELEKNRSHVLQQTQRLDTSQKRILELESHLAKKDHLLLEQKKYLEDVKLQARGQLQAAESRYEAQKRITQVFELEILDLYGRLEKDGLLKKLEEEKAEAAEAAEERLDCCNDGCSDSMVGHNEEASGHNGETKTPRPSSARGSSGSRGGGGSSSSSSELSTPEKPPHQRAGPFSSRWETTMGEASASIPTTVGSLPSSKSFLGMKARELFRNKSESQCDEDGMTSSLSESLKTELGKDLGVEAKIPLNLDGPHPSPPTPDSVGQLHIMDYNETHHEHS
Take B8: the binding entry was “binds”.

B9: EBNA1BP2 (protein, UniProt Q99848 1-306)
chain: MDTPPLSDSESESDESLVTDRELQDAFSRGLLKPGLNVVLEGPKKAVNDVNGLKQCLAEFKRDLEWVERLDVTLGPVPEIGGSEAPAPQNKDQKAVDPEDDFQREMSFYRQAQAAVLAVLPRLHQLKVPTKRPTDYFAEMAKSDLQMQKIRQKLQTKQAAMERSEKAKQLRALRKYGKKVQTEVLQKRQQEKAHMMNAIKKYQKGFSDKLDFLEGDQKPLAQRKKAGAKGQQMRKGPSAKRRYKNQKFGFGGKKKGSKWNTRESYDDVSSFRAKTAHGRGLKRPGKKGSNKRPGKRTREKMKNRTH
For B9, the binding entry is listed as “binds”.
